# According to PubChem BioAssay AID540256 (National Center for Advancing Translational Sciences (NCATS), 2011):
# “And” between values parts separate entries of the source, which are not always exact repeats. Identical values can stand only once. Out of some 300,000 compounds screened, about 3,700 (1.2%) were called active. This list was built around the results that the source calls inconclusive (neither active nor inactive); the mix of calls is not that of the screen. Calls follow the shape of the full dose curve; tested in HEK293 cells. Potencies of inconclusive entries are doubtful fits and often do not repeat.
# Test: qHTS for Inhibitors of binding or entry into cells for Lassa Virus; also: nearly all actives have a fitted effect of over 50% in size
# Conditions: Lassa virus pseudotype entry inhibition, cell reporter; activity change, negative = inhibition: at 37.9 µM (top of the series) unless noted
# % is scaled to controls: 0 for no effect and ±100 for the full control effect; potency is read from the fitted curve at half-maximal effect.
SMILES,"activity change, negative = inhibition",Potency
N#Cc1ccc(Cn2ccnc2C(=O)Nc2ccccc2)cc1,inactive: -7.74% [at 46.1 µM],–
CCN(CC)c1ccc(/C=C(/C#N)c2nc3ccc(C)cc3[nH]2)c(OC(C)C)c1,–,"inconclusive: 29.1 µM [inhibitor, single point]"
O=C(CN(CCc1ccccc1)C(=O)CNS(=O)(=O)c1ccccc1)NCC1CCCO1 (stereo unspecified),–,"inconclusive: 0.631 µM [activator, single point]"
COc1ccc(C(=O)NC2CCCCCC2)cc1S(=O)(=O)N1CCCc2ccccc21,–,active: 7.08 µM
CC(=C/c1ccccc1)/C=N/NC(=O)c1ccc2nc[nH]c2c1,–,"inconclusive: 0.731 µM [activator, full curve]"
C/C(=N\NC(=O)COc1ccccc1-c1ccccc1)c1ccccn1,–,active: 5.62 µM
O=CN1CCN(C=O)C(O)C1O (stereo unspecified),inactive: -0.469%,–
O=C1c2ccccc2C(=O)N1Cc1ccccc1F,inactive: 2.05%,–
O=C1C(Cl)=C(N2CCCCC2)C(=O)C(Cl)=C1c1cnc(N2CCCCC2)s1,–,active: 11.6 µM
CCC(=O)N1CCCc2cc(S(=O)(=O)N3CCC(C(=O)Nc4ccc(C#N)cc4)CC3)ccc21,inactive: -3.57% [at 46.1 µM],–
CC(C)c1csc(CN2CCN(Cc3ccccc3)C(CCO)C2)n1 (stereo unspecified),–,"inconclusive: 10 µM [inhibitor, partial curve, poor fit]"
COC(C(=O)N1CCC(n2nccc2NC(=O)C2CC2)CC1)c1ccccc1 (stereo unspecified),inactive: 23.3% [at 46.1 µM],–
O=C(NNC(=O)c1cccs1)c1ccncc1,inactive: -2.14%,–
N#Cc1cnn2c3c(cnc12)C(=O)N1CCc2ccccc2C1C3 (stereo unspecified),inactive: -1.43%,–
CCC(NC(=O)c1cc(COc2ccc(OC)cc2Cl)on1)c1ccncc1 (stereo unspecified),inactive: 6.28%,–
CCNc1nc(Cl)nc(NC(C)C)n1,–,"inconclusive: 5.62 µM [inhibitor, single point]"
COc1ccc(OCc2ccc(-c3nc(C#N)c(NCc4cccnc4)o3)o2)cc1,inactive: 7.83% [at 46.1 µM],–
O=C(CCNS(=O)(=O)c1ccccc1F)N1CCN(C(c2ccccc2)c2ccccc2)CC1,–,"inconclusive: 35.5 µM [inhibitor, single point]"
O=C(CN1C(=O)NC2(CCCCC2)C1=O)NCCc1c[nH]c2ccccc12,inactive: -1.27%,–
CC(C)(C)C1CCc2onc(C(=O)NC3CCCC3)c2C1 (stereo unspecified),–,"inconclusive: 29.1 µM [inhibitor, single point]"
O=C(NCc1cccc(F)c1)C1CCC(=O)N(C2CC2)C1 (stereo unspecified),–,"inconclusive: 10 µM [activator, partial curve]"
Cc1ccc(OCCSc2nc3ccc(NC(=O)c4ccco4)cc3s2)cc1,inactive: -10.6% [at 46.1 µM],–
CCOC(=O)C1CCCN(C(=O)c2ccc3nc(-c4cccc(OC)c4)oc3c2)C1 (stereo unspecified),–,"inconclusive: 11.2 µM [inhibitor, single point]"
O=C(CCNC(=O)c1ccccc1)Oc1ccc([N+](=O)[O-])cc1,–,"inconclusive: 35.5 µM [inhibitor, single point]"

SMILES,"activity change, negative = inhibition",Potency
CCCC(C)C(=O)Nc1ncc(S(=O)(=O)c2ccc([N+](=O)[O-])cc2)s1 (stereo unspecified),–,"inconclusive: 7.08 µM [inhibitor, partial curve, poor fit]"
COc1cc(NC(=O)Cn2nnnc2-c2ccccc2F)cc(OC)c1OC,inactive: 13.7% [at 46.1 µM],–
O=S(=O)(c1ccc(F)cc1)c1nc(-c2ccc(F)cc2)oc1NCCN1CCOCC1,–,"inconclusive: 11.2 µM [inhibitor, single point]"
CCCCn1c(N)c(N(CC)C(=O)C2=COCCO2)c(=O)[nH]c1=O,inactive: -0.197% [at 46.1 µM],–
O=C(c1noc2c1CCCC2)N1CCC(CO)(Cc2ccccc2Cl)CC1,–,"inconclusive: 4.47 µM [inhibitor, full curve, poor fit]"
COc1cccc(CNCc2ccco2)c1O,inactive: 2.06% [at 46.1 µM],–
COc1ccc(NC(=O)c2[nH]c(C)c(C(C)=O)c2C)cc1,inactive: 8.67%,–
COC(=O)Nc1nc(-c2ccc(F)cc2)c(C)s1,–,"inconclusive: 15.8 µM [inhibitor, single point]"
CCN(CC)S(=O)(=O)c1ccc(N2CCOCC2)c(NC(=O)CN2C(=O)NC(C)(c3ccccc3)C2=O)c1 (stereo unspecified),–,"inconclusive: 10 µM [inhibitor, partial curve, poor fit]"
CCOC(=O)c1sc(-c2ccc(F)cc2)cc1N,inactive: 16.3%,–
O=C(CC1N=C2c3ccccc3N=C(SCC(=O)Nc3ccccc3F)N2C1=O)NCc1ccc2c(c1)OCO2 (stereo unspecified),inactive: -17.1% [at 46.1 µM],–
CC(=O)Nc1ccccc1OCCOc1ccc(Br)cc1,–,"inconclusive: 35.5 µM [inhibitor, single point]"
Cc1ccc(-c2csc(NNC(=O)c3ccccc3)n2)cc1,–,"inconclusive: 35.5 µM [inhibitor, partial curve, poor fit]"
CCN(CC)S(=O)(=O)c1ccc2c(c1)nc(SC(C)C(=O)NCC1CCCO1)n2CC (stereo unspecified),–,"inconclusive: 1.26 µM [inhibitor, partial curve, poor fit]"
CCC1CCc2sc(C(=O)NC3CCN(Cc4ccccc4)CC3)cc2C1 (stereo unspecified),–,"inconclusive: 35.5 µM [inhibitor, single point]"
CCOc1ncccc1C(=O)OCC(=O)Nc1ccc(-c2nc3ccc(C)cc3s2)cc1,–,"inconclusive: 5.62 µM [inhibitor, partial curve, poor fit]"
Cc1nc(SCC(=O)Nc2cc(C)on2)c2c(C)c(C)sc2n1,–,"inconclusive: 0.82 µM [inhibitor, full curve]"
O=C(CCCSc1nc(-c2ccco2)cc(C(F)(F)F)n1)NCc1cccs1,–,"inconclusive: 35.5 µM [inhibitor, single point]"
Cc1ccc2[nH]c(C(=O)N3CCCCC3)cc2c1,inactive: 7.94%,–
CCOc1ccc(C(=O)Nc2ccc3nc4c(c(Nc5ccccc5OC)c3c2)CCCC4)cc1,–,active: 11.2 µM
COc1ccc(C(C(=O)NC2CCCCC2)N(C(=O)Cc2c[nH]c3ccccc23)c2ccccc2)cc1OC (stereo unspecified),–,"inconclusive: 20 µM [inhibitor, single point]"
COc1ccccc1NC(=O)CSC(N)=O,inactive: -13.8%,–
O=S(=O)(c1ccccc1)c1cnc(-c2cccnc2)nc1-c1ccc(Cl)cc1Cl,inactive: -14.3%,–
S=C(NCCSCc1ccc(Cl)cc1Cl)Nc1ccccc1,–,"inconclusive: 1.58 µM [activator, partial curve]"

SMILES,"activity change, negative = inhibition",Potency
CCOC(=O)CC(NS(=O)(=O)c1cc(-c2cc(C)no2)ccc1C)c1ccc(C)cc1 (stereo unspecified),–,"inconclusive: 7.08 µM [inhibitor, partial curve, poor fit]"
Cc1ccc(N(CCO)C(=S)Nc2ccccc2)cc1,–,"inconclusive: 35.5 µM [activator, partial curve, poor fit]"
CC1=C(C(=O)OCC(C)C)C(c2cccc(F)c2)N2C(=O)C(C)SC2=N1 (stereo unspecified),inactive: -4.57%,–
CCOC(=O)N1CCC(NC(=O)CCc2nc(C3=CCN(C)CC3)no2)CC1,–,"inactive and inconclusive: 794 nM [activator, partial curve, poor fit]"
CCN(CC)CCC(=O)N1C/C(=C/c2ccccc2)C(=O)/C(=C\c2ccccc2)C1,–,active: 10 µM
CN(C)c1ccc(CNC2C3CC4CC(C3)CC2C4)cc1 (stereo unspecified),–,"inconclusive: 23.1 µM [inhibitor, partial curve, poor fit]"
CCOC(=O)C1(Cc2ccc(OC)cc2)CCN(C(=O)c2cncs2)CC1,inactive: 15.6%,–
COc1ccc(CNC(=O)c2ccc3c(c2)CCN3S(=O)(=O)c2ccccc2)cc1,–,"inconclusive: 11.2 µM [inhibitor, single point]"
CC(=O)Nc1ccc(NC(=O)CSc2nnc3ccc(-c4ccc(F)cc4)nn23)cc1,–,"inconclusive: 12.6 µM [activator, single point]"
COc1ccc(C(=O)NC2CCCCCC2)cc1S(=O)(=O)N1CCCC1,inactive: 20.1%,–
CCCOCc1cc(CN2CCN(c3ccccc3OC)CC2)c(O)c2ncccc12,–,"inconclusive: 4.47 µM [inhibitor, full curve, poor fit]"
Cc1ccc(NC(=S)N(C)Cc2cn(C)c3ccccc23)cc1,–,"inconclusive: 16.4 µM [inhibitor, single point]"
COc1ccccc1NC(=O)C1=C(C)Nc2nc(SCC(=O)c3ccc(C)cc3)nn2C1c1ccc(F)cc1 (stereo unspecified),inactive: 23.8% [at 46.1 µM],–
Cc1ccc(CSCCNC(=O)CN(c2cccc(C)c2C)S(=O)(=O)c2ccccc2)cc1,–,"inconclusive: 35.5 µM [inhibitor, single point]"
Cc1ccc(-c2nnc(/C=C/c3ccccc3)o2)cc1,–,"inconclusive: 2.24 µM [activator, partial curve, poor fit]"
COc1ccc(OC)c(C(=O)COC(=O)COc2ccccc2)c1,inactive: -8.88%,–
Cc1cccc(N2C(=O)N(Cc3ccc(C(C)(C)C)cc3)c3ccccc3S2(=O)=O)c1,inactive: -24.3% [at 46.1 µM],–
N#CC(C#N)=C1SC(=Nc2ccccc2)C(=Nc2ccccc2)N1c1ccccc1,–,"inconclusive: 11.2 µM [inhibitor, partial curve, poor fit]"
CCc1ccc(C(=O)Nc2cc3c(cc2Cl)OCCCO3)cc1,–,"inconclusive: 12.6 µM [inhibitor, single point]"
COc1ccc(-n2nnnc2SCC(=O)N2CCCC2)cc1OC,–,"inconclusive: 6.51 µM [activator, single point]"
O=C(NC(c1ccccc1)c1c(O)ccc2ccccc12)c1ccccc1Cl (stereo unspecified),–,"inconclusive: 11.6 µM [inhibitor, partial curve, poor fit]"
COc1ccc(OC)c(S(=O)(=O)NCc2ccc3c(c2)CCN3C(=O)c2cccc(C)c2)c1,–,"inconclusive: 35.5 µM [inhibitor, single point]"
Cc1ccc(C)c(C(=O)N2CCC(n3nccc3NC(=O)C3CC3)CC2)c1,–,"inconclusive: 0.708 µM [activator, full curve, poor fit]"
